Results are given in words; binding and its absence hold for the method and conditions named. Some binding calls cover weakened binding; strength is not graded here.

The chains behind the UniProt entries cited, without tags or fusion partners. Where a name states a change or a piece, a line headed by the entry shows the natural chain unless it says otherwise.
UniProt P06729: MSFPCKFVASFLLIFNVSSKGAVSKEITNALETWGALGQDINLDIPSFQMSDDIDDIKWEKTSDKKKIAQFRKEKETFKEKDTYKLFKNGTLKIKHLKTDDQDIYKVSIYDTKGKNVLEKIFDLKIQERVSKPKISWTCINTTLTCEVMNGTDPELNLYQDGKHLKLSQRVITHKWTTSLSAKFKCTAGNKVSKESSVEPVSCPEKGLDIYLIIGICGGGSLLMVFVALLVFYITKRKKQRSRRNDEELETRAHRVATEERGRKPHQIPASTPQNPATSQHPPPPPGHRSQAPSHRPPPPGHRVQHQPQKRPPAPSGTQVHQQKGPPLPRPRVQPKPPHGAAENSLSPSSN

Experiment [1] deals with human CD2 on the surface of cells (MOLT-4 human T lymphoblast cells; primary human T-cells; primary human NK cells) (human) (UniProt P06729). Briefly: flow cytometry on MOLT-4 cells, secondary anti-mouse AF488, gMFI.
Experiment [2] shares this target. Description: flow cytometry on primary human T-cells, secondary AF488 stain, MFI. (In flow cytometry, cells or beads pass a laser one at a time.)

B1: RPA-2.10 mIgG1 (murine anti-CD2 antibody) (antibody, V domains shown)
VH: EVKLVESGGGLVKPGGSLKLSCAASGFTFSSYDMSWVRQTPEKRLEWVASISGGGFLYYLDSVKGRFTISRDNARNILYLHMTSLRSEDTAMYYCARSSYGEIMDYWGQGTSVTVSS
VL: DILLTQSPAILSVSPGERVSFSCRASQRIGTSIHWYQQRTTGSPRLLIKYASESISGIPSRFSGSGSGTDFTLSINSVESEDVADYYCQQSHGWPFTFGGGTKLEIER
As to B1, the binding entry in experiment [1] and in experiment [2] was “binds” each time.

Values taken from patent publication US20210260212A1.
